17 molecules from article PMC12858073 can be followed below.

Protein sequences, listed by entry. Tags and fused reporters are not part of them. Lines headed by an entry give the natural chain unless they say otherwise; changes in a name come on top. Residues count along the entry.
UniProt Q8BG05: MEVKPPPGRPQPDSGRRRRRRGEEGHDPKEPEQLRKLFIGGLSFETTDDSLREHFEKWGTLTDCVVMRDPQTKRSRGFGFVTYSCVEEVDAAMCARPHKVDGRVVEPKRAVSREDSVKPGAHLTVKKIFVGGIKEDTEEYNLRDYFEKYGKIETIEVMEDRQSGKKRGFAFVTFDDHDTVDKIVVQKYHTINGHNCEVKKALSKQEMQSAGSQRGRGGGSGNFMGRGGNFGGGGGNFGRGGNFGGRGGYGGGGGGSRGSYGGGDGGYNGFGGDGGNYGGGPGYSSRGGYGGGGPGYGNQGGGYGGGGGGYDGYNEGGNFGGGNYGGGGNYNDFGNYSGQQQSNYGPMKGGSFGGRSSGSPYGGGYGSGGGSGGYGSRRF
UniProt Q6NZF1: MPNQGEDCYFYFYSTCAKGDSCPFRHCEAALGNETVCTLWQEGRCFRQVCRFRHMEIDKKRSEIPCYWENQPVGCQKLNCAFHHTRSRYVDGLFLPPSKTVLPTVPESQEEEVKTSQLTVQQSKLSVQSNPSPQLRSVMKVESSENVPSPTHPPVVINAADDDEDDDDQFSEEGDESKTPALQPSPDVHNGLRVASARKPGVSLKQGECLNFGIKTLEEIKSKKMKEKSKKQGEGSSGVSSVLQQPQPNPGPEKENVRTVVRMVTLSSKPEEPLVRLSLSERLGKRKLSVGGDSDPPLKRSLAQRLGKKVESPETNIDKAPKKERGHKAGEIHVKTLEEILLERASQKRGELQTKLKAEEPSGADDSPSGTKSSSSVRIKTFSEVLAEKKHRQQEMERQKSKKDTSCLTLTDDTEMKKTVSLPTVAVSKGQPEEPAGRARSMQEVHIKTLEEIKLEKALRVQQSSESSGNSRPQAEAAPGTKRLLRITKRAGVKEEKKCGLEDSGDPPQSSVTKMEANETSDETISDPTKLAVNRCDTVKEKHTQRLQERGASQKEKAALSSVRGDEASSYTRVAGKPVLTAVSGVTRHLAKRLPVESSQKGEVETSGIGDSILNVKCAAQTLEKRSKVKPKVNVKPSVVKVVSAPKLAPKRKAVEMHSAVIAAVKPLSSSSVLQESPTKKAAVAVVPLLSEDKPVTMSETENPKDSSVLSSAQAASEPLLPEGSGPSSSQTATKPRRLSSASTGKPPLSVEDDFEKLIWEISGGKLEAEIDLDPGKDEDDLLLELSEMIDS
UniProt Q9CQF3: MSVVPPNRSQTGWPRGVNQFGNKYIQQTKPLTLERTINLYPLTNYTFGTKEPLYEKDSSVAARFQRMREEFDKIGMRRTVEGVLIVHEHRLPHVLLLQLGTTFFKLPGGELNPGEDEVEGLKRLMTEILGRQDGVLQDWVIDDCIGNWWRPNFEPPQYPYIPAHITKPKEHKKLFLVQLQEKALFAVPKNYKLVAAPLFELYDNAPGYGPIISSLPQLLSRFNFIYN
UniProt P58871: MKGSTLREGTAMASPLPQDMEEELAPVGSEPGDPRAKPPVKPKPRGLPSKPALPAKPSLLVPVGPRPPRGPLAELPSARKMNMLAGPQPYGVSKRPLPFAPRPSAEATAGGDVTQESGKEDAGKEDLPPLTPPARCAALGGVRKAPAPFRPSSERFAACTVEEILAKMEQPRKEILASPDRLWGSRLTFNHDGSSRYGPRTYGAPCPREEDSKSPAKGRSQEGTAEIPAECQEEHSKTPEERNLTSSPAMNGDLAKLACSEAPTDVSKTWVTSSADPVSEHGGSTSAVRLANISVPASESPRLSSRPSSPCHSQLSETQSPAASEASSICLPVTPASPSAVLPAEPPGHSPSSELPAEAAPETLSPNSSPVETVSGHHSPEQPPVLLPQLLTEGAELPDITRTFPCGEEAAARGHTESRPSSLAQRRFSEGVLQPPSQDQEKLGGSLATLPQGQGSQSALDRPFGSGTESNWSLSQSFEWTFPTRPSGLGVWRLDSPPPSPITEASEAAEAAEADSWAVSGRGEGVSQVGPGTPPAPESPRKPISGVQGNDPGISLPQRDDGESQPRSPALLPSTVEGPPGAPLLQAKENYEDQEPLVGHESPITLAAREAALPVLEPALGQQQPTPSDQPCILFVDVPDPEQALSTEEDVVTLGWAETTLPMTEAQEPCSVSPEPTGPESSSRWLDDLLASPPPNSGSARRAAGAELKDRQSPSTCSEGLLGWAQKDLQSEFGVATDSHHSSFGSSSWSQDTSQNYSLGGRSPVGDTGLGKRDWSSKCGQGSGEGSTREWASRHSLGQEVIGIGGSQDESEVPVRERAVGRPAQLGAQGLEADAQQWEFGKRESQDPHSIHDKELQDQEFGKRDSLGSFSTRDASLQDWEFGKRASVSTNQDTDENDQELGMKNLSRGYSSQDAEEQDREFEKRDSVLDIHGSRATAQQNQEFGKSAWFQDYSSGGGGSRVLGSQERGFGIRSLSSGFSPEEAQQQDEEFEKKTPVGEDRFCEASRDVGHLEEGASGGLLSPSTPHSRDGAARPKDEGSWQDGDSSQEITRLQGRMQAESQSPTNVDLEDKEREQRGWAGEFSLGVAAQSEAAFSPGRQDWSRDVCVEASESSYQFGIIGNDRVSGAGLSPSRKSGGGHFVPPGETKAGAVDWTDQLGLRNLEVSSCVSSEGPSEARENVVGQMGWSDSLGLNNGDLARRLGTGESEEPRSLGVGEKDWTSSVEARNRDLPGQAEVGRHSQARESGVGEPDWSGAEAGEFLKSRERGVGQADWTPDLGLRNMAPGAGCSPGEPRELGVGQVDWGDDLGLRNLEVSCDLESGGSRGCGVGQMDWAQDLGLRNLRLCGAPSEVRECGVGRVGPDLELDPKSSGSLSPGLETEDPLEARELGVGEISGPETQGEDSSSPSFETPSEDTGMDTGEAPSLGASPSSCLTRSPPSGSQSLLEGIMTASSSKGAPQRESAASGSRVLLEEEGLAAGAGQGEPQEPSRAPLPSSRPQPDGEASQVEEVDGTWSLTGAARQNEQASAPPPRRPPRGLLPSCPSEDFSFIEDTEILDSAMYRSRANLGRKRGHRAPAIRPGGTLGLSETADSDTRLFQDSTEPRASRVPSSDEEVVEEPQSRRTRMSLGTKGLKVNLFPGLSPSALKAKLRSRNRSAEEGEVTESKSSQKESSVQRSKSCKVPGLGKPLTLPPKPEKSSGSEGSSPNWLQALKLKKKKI
UniProt Q62167: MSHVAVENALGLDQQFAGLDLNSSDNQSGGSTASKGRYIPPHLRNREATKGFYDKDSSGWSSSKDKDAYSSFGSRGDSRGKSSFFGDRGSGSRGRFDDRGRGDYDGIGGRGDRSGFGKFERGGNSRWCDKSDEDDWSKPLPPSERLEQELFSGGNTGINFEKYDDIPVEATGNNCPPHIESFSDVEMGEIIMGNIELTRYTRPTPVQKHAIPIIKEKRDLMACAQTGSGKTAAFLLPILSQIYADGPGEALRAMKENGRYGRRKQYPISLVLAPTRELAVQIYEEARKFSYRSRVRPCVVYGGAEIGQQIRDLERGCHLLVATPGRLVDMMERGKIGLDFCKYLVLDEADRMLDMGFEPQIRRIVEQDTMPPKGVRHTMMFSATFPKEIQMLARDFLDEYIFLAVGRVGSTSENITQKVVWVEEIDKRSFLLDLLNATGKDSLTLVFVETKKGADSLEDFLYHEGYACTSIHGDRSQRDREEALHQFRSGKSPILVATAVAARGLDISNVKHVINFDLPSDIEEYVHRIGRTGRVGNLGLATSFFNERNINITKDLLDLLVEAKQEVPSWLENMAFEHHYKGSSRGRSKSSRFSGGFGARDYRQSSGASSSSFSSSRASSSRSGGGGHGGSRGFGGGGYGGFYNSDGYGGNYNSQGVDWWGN
UniProt P11688, residues 45-1053: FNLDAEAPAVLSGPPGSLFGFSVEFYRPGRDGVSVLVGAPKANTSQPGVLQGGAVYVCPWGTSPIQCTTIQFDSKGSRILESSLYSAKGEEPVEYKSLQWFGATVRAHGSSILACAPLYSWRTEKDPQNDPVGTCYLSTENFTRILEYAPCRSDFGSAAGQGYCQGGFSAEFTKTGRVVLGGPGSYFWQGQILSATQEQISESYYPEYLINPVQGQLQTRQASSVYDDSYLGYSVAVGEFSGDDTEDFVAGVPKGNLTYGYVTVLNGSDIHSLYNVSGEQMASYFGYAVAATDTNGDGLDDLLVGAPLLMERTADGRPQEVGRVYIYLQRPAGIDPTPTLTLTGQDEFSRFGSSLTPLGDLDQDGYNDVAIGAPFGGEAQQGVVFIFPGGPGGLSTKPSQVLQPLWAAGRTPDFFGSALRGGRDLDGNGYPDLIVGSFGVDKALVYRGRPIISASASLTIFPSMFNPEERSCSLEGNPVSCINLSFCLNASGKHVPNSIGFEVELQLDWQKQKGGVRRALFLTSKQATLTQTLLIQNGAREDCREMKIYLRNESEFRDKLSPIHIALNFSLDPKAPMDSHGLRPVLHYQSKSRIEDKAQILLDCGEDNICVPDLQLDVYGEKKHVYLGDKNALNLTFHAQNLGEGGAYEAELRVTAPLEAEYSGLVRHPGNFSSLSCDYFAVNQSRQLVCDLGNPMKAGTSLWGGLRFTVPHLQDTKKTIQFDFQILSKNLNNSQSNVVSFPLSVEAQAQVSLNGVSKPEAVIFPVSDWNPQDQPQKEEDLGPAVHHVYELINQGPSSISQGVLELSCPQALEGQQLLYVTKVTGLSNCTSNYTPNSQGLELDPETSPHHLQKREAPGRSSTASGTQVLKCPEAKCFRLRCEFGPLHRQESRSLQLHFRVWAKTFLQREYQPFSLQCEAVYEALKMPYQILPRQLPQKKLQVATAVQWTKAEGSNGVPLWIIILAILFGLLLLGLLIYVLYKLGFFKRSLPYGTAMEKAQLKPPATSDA
UniProt P08122: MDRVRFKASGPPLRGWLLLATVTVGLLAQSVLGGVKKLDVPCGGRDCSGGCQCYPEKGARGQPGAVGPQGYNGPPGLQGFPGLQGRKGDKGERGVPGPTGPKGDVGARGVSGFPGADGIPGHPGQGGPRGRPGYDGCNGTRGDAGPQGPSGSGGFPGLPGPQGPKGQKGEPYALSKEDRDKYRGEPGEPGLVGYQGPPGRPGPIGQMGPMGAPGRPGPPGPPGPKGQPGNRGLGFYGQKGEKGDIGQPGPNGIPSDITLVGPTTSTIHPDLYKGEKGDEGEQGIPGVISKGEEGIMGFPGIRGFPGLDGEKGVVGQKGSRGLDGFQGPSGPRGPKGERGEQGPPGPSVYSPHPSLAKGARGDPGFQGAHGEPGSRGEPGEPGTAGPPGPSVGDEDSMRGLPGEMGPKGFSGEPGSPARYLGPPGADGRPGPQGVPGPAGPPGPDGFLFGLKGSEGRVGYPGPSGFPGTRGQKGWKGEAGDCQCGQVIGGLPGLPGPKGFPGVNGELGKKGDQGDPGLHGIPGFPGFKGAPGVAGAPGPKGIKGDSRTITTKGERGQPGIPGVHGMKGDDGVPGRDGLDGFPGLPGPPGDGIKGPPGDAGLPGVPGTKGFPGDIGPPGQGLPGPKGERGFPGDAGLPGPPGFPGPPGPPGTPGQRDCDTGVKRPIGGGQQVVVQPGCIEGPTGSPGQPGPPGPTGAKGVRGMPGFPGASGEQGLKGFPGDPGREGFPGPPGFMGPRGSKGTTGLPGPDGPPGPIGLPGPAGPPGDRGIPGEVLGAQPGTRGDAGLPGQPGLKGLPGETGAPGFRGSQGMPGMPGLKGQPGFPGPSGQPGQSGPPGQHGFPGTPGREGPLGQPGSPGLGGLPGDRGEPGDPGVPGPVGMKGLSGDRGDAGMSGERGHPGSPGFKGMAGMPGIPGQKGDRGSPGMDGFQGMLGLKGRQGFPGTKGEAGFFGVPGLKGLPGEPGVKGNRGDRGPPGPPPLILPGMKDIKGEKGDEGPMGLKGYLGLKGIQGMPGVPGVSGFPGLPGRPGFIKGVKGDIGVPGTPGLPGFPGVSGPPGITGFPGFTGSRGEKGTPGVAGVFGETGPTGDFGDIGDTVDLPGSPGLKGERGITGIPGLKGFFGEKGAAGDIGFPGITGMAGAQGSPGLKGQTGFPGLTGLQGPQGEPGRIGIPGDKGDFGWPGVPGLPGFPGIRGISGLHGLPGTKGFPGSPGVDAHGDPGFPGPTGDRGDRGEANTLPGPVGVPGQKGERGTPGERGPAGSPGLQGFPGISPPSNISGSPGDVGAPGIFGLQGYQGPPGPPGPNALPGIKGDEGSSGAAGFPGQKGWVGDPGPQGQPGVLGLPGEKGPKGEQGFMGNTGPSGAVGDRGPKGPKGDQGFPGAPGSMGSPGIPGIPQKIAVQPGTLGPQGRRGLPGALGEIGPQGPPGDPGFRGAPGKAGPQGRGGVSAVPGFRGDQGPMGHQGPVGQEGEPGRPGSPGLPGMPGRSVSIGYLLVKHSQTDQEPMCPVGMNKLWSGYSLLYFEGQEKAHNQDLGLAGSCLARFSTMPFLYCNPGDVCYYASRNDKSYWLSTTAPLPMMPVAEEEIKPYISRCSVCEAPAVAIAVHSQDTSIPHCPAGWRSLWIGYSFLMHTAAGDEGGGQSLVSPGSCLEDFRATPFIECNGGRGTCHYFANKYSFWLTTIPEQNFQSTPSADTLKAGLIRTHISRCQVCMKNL

These are yes or no findings as the source states them, for the method shown. In cells and extracts the contact can be indirect. Here binding means that the protein was enriched with, or labelled near, the bait; the list need not be complete.

Test [1] deals with T1, Ala10 PABPN1-TurboID (UniProt Q8CCS6).
T1 sequence: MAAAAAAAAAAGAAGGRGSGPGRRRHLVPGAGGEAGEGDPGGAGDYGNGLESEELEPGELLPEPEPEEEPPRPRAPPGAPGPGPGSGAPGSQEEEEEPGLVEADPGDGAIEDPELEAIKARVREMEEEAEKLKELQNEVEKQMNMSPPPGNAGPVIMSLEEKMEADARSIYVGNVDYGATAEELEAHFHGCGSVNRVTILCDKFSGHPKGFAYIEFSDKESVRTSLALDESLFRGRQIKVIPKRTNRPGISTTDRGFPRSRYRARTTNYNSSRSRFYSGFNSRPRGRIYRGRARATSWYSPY
In words: proximity labelling; PABPN1-TurboID at near-native levels in C2C12 myotubes (doxycycline, biotin); streptavidin capture; label-free quantitative nanoLC-MS/MS against the Mus musculus database; three experiments; strict hits in at least two of three replicates and not in wild type controls.

Test [2] has as its target T2, Ala17 PABPN1-TurboID (UniProt Q8CCS6).
T2 sequence: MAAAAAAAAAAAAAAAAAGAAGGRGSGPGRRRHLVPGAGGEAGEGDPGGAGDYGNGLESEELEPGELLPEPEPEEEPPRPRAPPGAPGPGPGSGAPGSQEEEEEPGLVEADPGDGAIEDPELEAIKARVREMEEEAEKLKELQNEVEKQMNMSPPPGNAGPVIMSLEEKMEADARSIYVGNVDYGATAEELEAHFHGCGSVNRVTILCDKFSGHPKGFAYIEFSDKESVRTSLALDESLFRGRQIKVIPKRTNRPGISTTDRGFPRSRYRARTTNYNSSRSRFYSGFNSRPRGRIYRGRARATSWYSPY
Described as above.

Turning to HNRNPK (from UniProt P61979 1-463), the binding entry in test [1] and in test [2] was “binds” throughout.

As for HNRNPA3 (from UniProt Q8BG05 1-379), the binding result in test [2] is “binds”.

As for ZC3H11A (from UniProt Q6NZF1 1-792), the binding result in test [1] and in test [2] was “binds” throughout.

As to NUDT21 (from UniProt Q9CQF3 1-227), the binding entry in test [1] and in test [2] was “binds” throughout.

On to TNKS1BP1 (from UniProt P58871 1-1720), for which the binding result in test [1] was “binds”.

Regarding DDX3X (from UniProt Q62167 1-662), the binding result in test [1] and in test [2] was “binds” in each case.

On to NUP214 (from UniProt Q80U93 1-2085), for which the binding result in test [1] and in test [2] was “binds” throughout.

As for ITGA5 (from UniProt P11688 45-1053), in test [1], the binding entry was “binds”.

On to PRRC2A (from UniProt Q7TSC1 1-2158), for which the binding result in test [2] is on record as “binds”.

For the molecule COL4A2 (from UniProt P08122), in test [1], the binding result is recorded as “binds”.

B1: PLAA (protein, UniProt P27612 1-794)
chain: MASGASRYRLSCSLPGHELDVRGLVCCLYPPGAFVSVSRDRTTRLWAPDSPNRGFTEMHCMSGHSNFVSCVCIIPSSDIYPHGLIATGGNDHNICIFSLDSPMPLYILKGHKDTVCSLSSGKFGTLLSGSWDTTAKVWLNDKCMMTLQGHTAAVWAVKILPEQGLMLTGSADKTIKLWKAGRCERTFLGHEDCVRGLAILSETEFLSCANDASIRRWQITGECLEVYFGHTNYIYSISVFPNSKDFVTTAEDRSLRIWKHGECAQTIRLPAQSIWCCCVLENGDIVVGASDGIIRVFTESEERTASAEEIKAFERELSQATIDSKTGDLGDINAEQLPGREHLSEPGTREGQTRLIRDGERVEAYQWSVSDGRWIKIGDVVGSSGANQQTSGKVLYEGKEFDYVFSIDVNEGGPSYKLPYNVSDDPWLVAYNFLQKNDLNPMFLDQVAKFIIDNTKGQTLGLGNTSFSDPFTGGGRYVPGTSGPSNTVQTADPFTGAGRYMPGSAGMDTTMTGVDPFTGNSAYRSAASKTVNIYFPKKEALTFDQANPTQILGKLKELNGTAPEEKKLTEDDLVLLEKILSLICNNSSEKPTAQQLQILWKAINWPEDIVFPALDILRLSIKHPNVNENFCNEKGDQFSSHLINLLNPKGKPANQLLALRTFCNCFVSQAGQKLMMSQRESLMSHAIELKSGSNKNIHIALATLTLNYSVCFHKDHNIEGKAQCLSVISTILEVVQDLEATFRLLVALGTLISDDSNAIQLAKSLGVDSQIKKYVSVSEPAKVSECCRLVLHLL
Turning to B1, the binding entry in test [2] is on record as “binds”.

B2: ASAH1 (protein, UniProt Q9WV54 19-394)
chain: QAQDVPPWTEDCRKSTYPPSGPTYRGPVPWHTINLDLPPYKRWHELLAQKAPALRILVNSITSLVNTFVPSGKLMKMVDQKLPGMIGSLPDPFGEEMRGIADVTGIPLGEIISFNIFYELFTMCTSIITEDEKGHLLHGRNMDFGIFLGWNINNNTWVVTEELKPLTVNLDFQRNNKTVFKATSFVGYVGMLTGFKPGLFSLSLNERFSINGGYLGILEWMFGRKDAQWVGFITRSVLENTTSYEEAKNTLTKTKIMAPVYFILGGKKSGEGCVITRERKESLDVYELDPKHGRWYVVQTNYDRWKNTLFIDDRRTPAKKCLNHTTQKNLSFATIYDVLSTKPVLNKLTVFTTLMDVTKGQFESHLRDCPDPCIGW
Regarding B2, in test [1], the binding entry is “binds”.

B3: LNPEP (protein, UniProt Q8C129 1-1025)
chain: MESFTNDRLQLPRNMIENSMFEEEPDVVDLAKEPCLHPLEPDEVEYEPRGSRLLVRGLGEHEMDEDEEDYESSAKLLGMSFMNRSSGLRNSAAGYRQSPDGTCSLPSARTLVICVFVIVVAVSVIMVIYLLPRCTFTKEGCHKTNQSAELIQPVATNGKVFPWAQIRLPTAIIPLCYELSLHPNLTSMTFRGSVTISLQALQDTRDIILHSTGHNISRVTFMSAVSSQEKQVEILEYPYHEQIAVVAPEPLLTGHNYTLKIEYSANISNSYYGFYGITYTDKSNEKKYFAATQFEPLAARSAFPCFDEPAFKATFIIKITRNEHHTALSNMPKKSSVPAEEGLIQDEFSESVKMSTYLVAFIVGEMRNLSQDVNGTLVSVYAVPEKIGQVHHALDTTIKLLEFYQTYFEIQYPLKKLDLVAIPDFEAGAMENWGLLTFREETLLYDNATSSVADRKLVTKIIAHELAHQWFGNLVTMQWWNDLWLNEGFATFMEYFSVEKIFKELNSYEDFLDARFKTMRKDSLNSSHPISSSVQSSEQIEEMFDSLSYFKGASLLLMLKSYLSEDVFRHAVILYLHNHSYAAIQSDDLWDSFNEVTDKTLDVKKMMKTWTLQKGFPLVTVQRKGTELLLQQERFFLRMQPESQPSDTSHLWHIPISYVTDGRNYSEYRSVSLLDKKSDVINLTEQVQWVKVNSNMTGYYIVHYAHDDWTALINQLKRNPYVLSDKDRANLINNIFELAGLGKVPLRMAFDLIDYLKNETHTAPITEALFQTNLIYNLLEKLGHMDLSSRLVARVHKLLQNQIQQQTWTDEGTPSMRELRSALLEFACAHSLENCTTMATNLFDSWMASNGTQSLPTDVMVTVFKVGARTEKGWLFLFSMYSSMGSEAEKNKILEALASSEDVHKLYWLMKSSLDGDIIRTQKLSLIIRTVGRHFPGHLLAWDFVKENWNKLVHKFHLGSYTIQSIVAGSTHLFSTKTHLSEVQAFFENQSEATLKLRCVQEALEVIQLNIQWMVRNLKTLSQWL
Regarding B3, the binding entry in test [1] is “binds”.

B4: PCNP (protein, UniProt Q6P8I4 1-178)
chain: MADGKAGEEKPEKPQRAGAAGGPEEEAEKPVKTKTVSSSNGGESSSRSAEKRSAEDEAADLPTKPTKMSKFGFAIGSQTARKASAISIRLGASKPKETVPTLAPKTLSVAAAFNEDEDSEPEEMPPEAKMRMKNIGRDTPTSAGPNSFNKGKHGFSDNQKLWERNIKSHLGNVHDQDN
Take B4: the binding entry in test [2] was “binds”.

B5: RAB21 (protein, UniProt P35282 1-222)
chain: MAAAGGGAAAAAGRAYSFKVVLLGEGCVGKTSLVLRYCENKFNDKHITTLQASFLTKKLNIGGKRVNLAIWDTAGQERFHALGPIYYRDSNGAILVYDVTDEDSFQKVKNWVKELRKMLGNEICLCIVGNKIDLEKERHVSIQEAESYAESVGAKHYHTSAKQNKGIEELFLDLCKRMIETAQVDERAKGNGSSQAGAARRGVQIIDDEPQAQSSGGCCSSG
Turning to B5, the binding result in test [1] is on record as “binds”.

B6: ACIN1 (protein, UniProt Q9JIX8 1-1338)
chain: MWGRKRPNSSGETRGILSGNRGVDYGSGRGQSGPFEGRWRKLPKMPEAVGTDPSTSRKMAELEEVTLDGKPLQALRVTDLKAALEQRGLAKSGQKSALVKRLKGALMLENLQKHSTPHAAFQPNSQIGEEMSQNSFIKQYLEKQQELLRQRLEREAREAAELEEASAESEDEMTHPEGVASLLPPDFQSSLNRPELELSTHSPRKSSSFSEEKGESDDEKPRKGERRSSRVRQAKSKLPEYSQTAEEEEDQETPSRNLRVRADRNLKIEEEEEEEEEEEDDDDEEEEEVDEAQKSREAEAPTLKQFEDEEGEERTRAKPEKVVDEKPLNIRSQEKGELEKGGRVTRSQEEARRSHLARQQQEKETQIVSLPQEENEVKSSQSLEEKSQSPSPPPLPEDLEKAPVVLQPEQIVSEEETPPPLLTKEASSPPTHIQLQEEMEPVEGPAPPVLIQLSPPNTDAGAREPLASPHPAQLLRSLSPLSGTTDTKAESPAGRVSDESVLPLAQKSSLPECSTQKGVESEREKSAPLPLTVEEFAPAKGITEEPMKKQSLEQKEGRRASHALFPEHSGKQSADSSSSRSSSPSSSSSPSRSPSPDSVASRPQSSPGSKQRDGAQARVHANPHERPKMGSRSTSESRSRSRSRSRSASSSSRKSLSPGVSRDSNTSYTETKDPSCGQEAAAPSGPQLQVLEPKEKAPTFSASVRGRHLSHPEPEQQHVIQRLQPEQGSPKKCEAEEAEPPAATQPQTSETQISHLLESERTHHTVEEKEEVTMDTSENRPENEVPEPPLPVADQVSNDERPEGGAEEEEKKESSMPKSFKRKISVVSATKGVQAGNSDTEGGQPGRKRRWGASTAATQKKPSISITTESLKSLIPDIKPLAGQEAVVDLHADDSRISEDETERNGDDGTHDKGLKICRTVTQVVPAEGQENGQREEEEEKEPEAELPAPPQVSVEVALPPPVEHEVKKVTLGDTLTRRSISQQKSGVSITIDDPVRTAQVPSPPRGKISNIVHISNLVRPFTLGQLKELLGRTGTLVEEAFWIDKIKSHCFVTYSTVEEAVATRTALHGVKWPQSNPKFLCADYAEQDELDYHRGLLVDRPSETKAEEQGAPRPLHPPPPPPVQPPPHPRAEQREQERAVREQWAEREREMERRERTRSEREWDRDKVREGPRSRSRSRDRRRKERAKSKEKKSEKKEKAQEEPPAKLLDDLFRKTKAAPCIYWLPLTESQIVQKEAEQAERAKEREKRRKEREEEEQKEREKEAERERNRQLEREKRREHSRERERDRERERDRGDRERERERDRDRGRERDRRDTKRHSRSRSRSTPVRDRGGRR
Consider B6, for which the binding entry in test [2] is “binds”.

B7: CPSF7 (protein, UniProt Q8BTV2 1-471)
chain: MSEGVDLIDIYADEEFNQDSEFNNTDQIDLYDDVLTAASQPSDDRSSSTEPPPPVRQEPAPKPNNKTPAILYTYSGLRSRRAAVYVGSFSWWTTDQQLIQVIRSIGVYDVVELKFAENRANGQSKGYAEVVVASENSVHKLLELLPGKVLNGEKVDVRPATRQNLSQFEAQARKRECVRVPRGGIPPRAHSRDSSDSADGRATPSENLVPSSARVDKPPSVLPYFNRPPSALPLMGLPPPPIPPPPPLSSSFGVPPPPPGIHYQHLMPPPPRLPPHLAVPPPGAIPPALHLNPAFFPPPNATVGPPPDTYMKASTPYNHHGSRDSGPPPSTVSEAEFEEIMKRNRAISSSAISKAVSGASAGDYSDAIETLLTAIAVIKQSRVANDERCRVLISSLKDCLHGIEAKSYSVGASGSSSRKRHRSRERSPSRSRESSRRHRDLLHNEDRHDDYFQERNREHERHRDRERDRHH
Take B7: the binding entry in test [2] was “binds”.
